Measured values: PMC11549365

B1: GFP-SEPTIN2 (protein, UniProt P42208 1-361)
chain: MSKQQPTQFINPETPGYVGFANLPNQVHRKSVKKGFEFTLMVVGESGLGKSTLINSLFLTDLYPERIIPGAAEKIERTVQIEASTVEIEERGVKLRLTVVDTPGYGDAINCRDCFKTIISYIDEQFERYLHDESGLNRRHIIDNRVHCCFYFISPFGHGLKPLDVAFMKAIHNKVNIVPVIAKADTLTLKERERLKKRILDEIEEHSIKIYHLPDAESDEDEDFKEQTRLLKASIPFSVVGSNQLIEAKGKKVRGRLYPWGVVEVENPEHNDFLKLRTMLITHMQDLQEVTQDLHYENFRSERLKRGGRKVENEDMNKDQILLEKEAELRRMQEMIARMQAQMQMQMQGGDSDSGALGQHV
B2: GFP-SEPTIN7 (protein, UniProt O55131 1-436)
chain: MSVSARSAAAEERSVNCGTMAQPKNLEGYVGFANLPNQVYRKSVKRGFEFTLMVVGESGLGKSTLINSLFLTDLYSPEYPGPSHRIKKTVQVEQSKVLIKEGGVQLLLTIVDTPGFGDAVDNSNCWQPVIDYIDSKFEDYLNAESRVNRRQMPDNRVQCCLYFIAPSGHGLKPLDIEFMKRLHEKVNIIPLIAKADTLTPEECQQFKKQIMKEIQEHKIKIYEFPETDDEEENKLVKKIKDRLPLAVVGSNTIIEVNGKRVRGRQYPWGVAEVENGEHCDFTILRNMLIRTHMQDLKDVTNNVHYENYRSRKLAAVTYNGVDNNKNKGQLTKSPLAQMEEERREHVAKMKKMEMEMEQVFEMKVKEKVQKLKDSEAELQRRHEQMKKNLEAQHKELEEKRRQFEEEKANWEAQQRILEQQNSSRTLEKNKKKGKIF
B3: GFP-SEPTIN12 (protein, UniProt A0A2R8VJU7 1-357)
chain: MDERRSPSPCSSRPSSPRTPPNEMFGPVGIEAVLDQLRIKAMKTGFEFNIMVVGQSGLGKSTMVNTLFKSKVWQSTEPNLDVPMPQTLELHSVTHVIEEKGLKLKLTVTDTPGFGDQINNDKCWDPILSYINQQYEQYLQEELLITRQRHIPDTRVHCCVYFVPPTGHCLRPLDIEFLRRLCRTVNVVPVIARADSLTIEERDAFRSRIQQNLKTHCIDVYPQKCFDEDVNDRLLNSKIREQIPFAVVGADREHIVNGRCVLGRKTKWGIIEVENMAHCEFLLLRDLLIRSHLQDLKDITHNVHYENYRVLRLNESHVLPRGPGWVNLAPVSPGQLMAPGPGKVRKRANKDTKDEEC

The binders below were run against ARMC12 (Armadillo Repeat Containing 12) (not stated (human or mouse cDNA cloned)) (assay: co-IP; HEK-293T cells co-transfected with the two plasmids, lysed after 24 h (50 mM HEPES pH 7.4, 150 mM NaCl, 2 mM MgCl2, 1 mM EGTA, 0.1% Triton X-100); cleared lysate incubated with FLAG beads overnight at 4 °C, washed three times; western blot with anti-FLAG and anti-GFP).
For B1, the binding was “binds”. In the case of B2, the binding is reported as “binds”. For B3, the binding was “binds”.

These are yes or no findings as the source states them, for the method shown. In cells and extracts the contact can be indirect. Binding calls can cover weak binding; strength is not graded here. Tags and fused reporters may be left off the sequences shown.
